# Laboratory results taken from PMC10177872.
# The chains behind the UniProt entries cited, without tags or fusion partners. Where a name states a change or a piece, a line headed by the entry shows the natural chain unless it says otherwise.
# UniProt Q60710: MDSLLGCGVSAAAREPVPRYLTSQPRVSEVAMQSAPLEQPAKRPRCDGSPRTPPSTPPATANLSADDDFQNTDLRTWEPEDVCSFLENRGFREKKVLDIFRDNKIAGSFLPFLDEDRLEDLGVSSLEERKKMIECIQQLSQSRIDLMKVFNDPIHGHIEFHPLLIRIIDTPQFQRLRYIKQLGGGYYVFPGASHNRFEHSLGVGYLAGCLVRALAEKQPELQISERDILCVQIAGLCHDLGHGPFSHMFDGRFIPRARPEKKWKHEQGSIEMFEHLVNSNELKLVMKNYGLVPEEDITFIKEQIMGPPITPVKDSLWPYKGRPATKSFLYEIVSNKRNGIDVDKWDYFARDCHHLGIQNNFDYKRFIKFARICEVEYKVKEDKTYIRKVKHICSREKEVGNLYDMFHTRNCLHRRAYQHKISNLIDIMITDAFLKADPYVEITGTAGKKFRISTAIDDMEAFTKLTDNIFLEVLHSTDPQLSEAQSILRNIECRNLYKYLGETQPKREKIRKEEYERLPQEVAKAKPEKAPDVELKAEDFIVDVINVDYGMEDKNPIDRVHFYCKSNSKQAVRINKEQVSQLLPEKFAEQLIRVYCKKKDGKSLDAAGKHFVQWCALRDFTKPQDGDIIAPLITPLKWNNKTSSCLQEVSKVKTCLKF
# UniProt Q60932: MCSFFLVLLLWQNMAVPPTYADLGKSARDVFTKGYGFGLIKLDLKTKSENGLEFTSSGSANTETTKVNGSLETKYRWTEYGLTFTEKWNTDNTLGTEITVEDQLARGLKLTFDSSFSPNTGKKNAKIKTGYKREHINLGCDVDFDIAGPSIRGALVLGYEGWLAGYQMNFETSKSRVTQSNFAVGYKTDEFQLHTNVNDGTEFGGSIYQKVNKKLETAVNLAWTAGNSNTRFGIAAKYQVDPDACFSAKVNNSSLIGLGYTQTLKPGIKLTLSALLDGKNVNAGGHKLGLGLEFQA
# These are yes or no findings as the source states them, for the method shown. Binding seen in cells or lysates may run through a third protein. A result given as binding can be weak or reduced; the word gives no strength.
# Biological target: SAM and HD domain-containing deoxynucleoside triphosphate triphosphohydrolase 1 (SAMHD1) (mouse (endogenous in RAW264.7)) (UniProt Q60710)
# Assay: co-IP; anti-SAMHD1 immunoprecipitation from lysates of wild-type RAW264.7 cells under normal conditions, IgG as isotype control; immunoblot of VDAC1, VDAC2 and SAMHD1
substance,measurement,value
voltage-dependent anion channel-1 (VDAC1) (from UniProt Q60932),binding,binds
